These are yes or no findings as the source states them, for the method shown. Some binding calls cover weakened binding; strength is not graded here.
Biological target: Loop construct: presenilin 1 loop region (amino acids 260-400) in vector pAS2-1 (UniProt P04386)
Assay: yeast two-hybrid, Loop region bait against human brain cDNA library

The chains behind the UniProt entries cited, without tags or fusion partners. Where a name states a change or a piece, a line headed by the entry shows the natural chain unless it says otherwise.
UniProt P04386: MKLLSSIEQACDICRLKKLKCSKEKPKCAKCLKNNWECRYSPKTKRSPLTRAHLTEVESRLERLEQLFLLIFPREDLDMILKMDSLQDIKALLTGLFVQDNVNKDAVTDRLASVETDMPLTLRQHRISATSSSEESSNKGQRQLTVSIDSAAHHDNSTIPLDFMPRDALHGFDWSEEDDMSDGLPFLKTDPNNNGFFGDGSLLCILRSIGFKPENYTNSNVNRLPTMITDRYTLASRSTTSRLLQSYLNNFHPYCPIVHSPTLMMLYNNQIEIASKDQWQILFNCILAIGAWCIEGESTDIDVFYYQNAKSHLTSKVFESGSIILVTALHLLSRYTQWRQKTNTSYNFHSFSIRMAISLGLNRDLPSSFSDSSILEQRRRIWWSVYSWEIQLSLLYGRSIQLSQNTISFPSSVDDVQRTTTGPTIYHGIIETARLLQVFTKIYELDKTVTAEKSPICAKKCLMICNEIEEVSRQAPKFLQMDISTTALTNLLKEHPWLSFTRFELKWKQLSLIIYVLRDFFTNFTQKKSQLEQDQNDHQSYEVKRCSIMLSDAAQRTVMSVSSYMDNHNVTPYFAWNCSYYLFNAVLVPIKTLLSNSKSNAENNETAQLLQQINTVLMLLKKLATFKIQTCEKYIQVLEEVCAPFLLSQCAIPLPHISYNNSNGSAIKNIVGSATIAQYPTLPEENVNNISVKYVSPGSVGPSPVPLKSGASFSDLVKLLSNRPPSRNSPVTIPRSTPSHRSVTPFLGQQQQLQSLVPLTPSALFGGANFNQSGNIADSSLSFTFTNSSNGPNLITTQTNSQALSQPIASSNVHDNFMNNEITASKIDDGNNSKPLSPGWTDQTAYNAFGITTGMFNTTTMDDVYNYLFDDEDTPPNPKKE

B1: ALARM captured protein as expressed from the human brain Matchmaker cDNA library in the yeast two-hybrid assay (protein, not shown: large carriers)
chain: MRSLSQSQGVPLPPAHTGTYRTSTAPSSPGVDSVPLQRTGSQHGPQNAAAATFQRASYAAGPASNYADPYRQLQYCPSVESPYSKSGPALPPEGTLARSPSIDSIQKDPREFGWRDPELPEVIQMLQHQFPSVQSNAAAYLQHLCFGDNKIKAEIRRQGGIQLLVDLLDHRMTEVHRSACGALRNLVYGKANDDNKIALKNCGGIPALVRLLRKTTDLEIRELVTGVLWNLSSCDALKMPIIQDALAVLTNAVIIPHSGWENSPLQDDRKIQLHSSQVLRNATGCLRNVSSPGEEARRRMRECDGLTDALLYVIQSALGSSEIDSKTVENCVCILRNLSYRLAAETSQGQHMGTDELDGLLCGEANGKDAESSGCWGKKKKKKKSQDQWDGVGPLPDCAEPPKGIQMLWHPSIVKPYLTLLSECSNPDTLEGAAGALQNLAAGSWKWSVYIRAAVRKEKGRPILVELLRIDNDRVACAVATALRNMALDVRNKELIGKYAMRDLVHRLPGGNNSNNTASKAMSDDTVTAVCCTLHEVITKNMENAKALRDAGGIEKLVGISKSKGDKHSPKVVKAASQVLNSMWQYRDLRSLYKKDGWSQYHFVASSSTIERDRQRPYSSSRTPSISPVRVSPNNRSASAPASPREMISLKERKTDYECTGSNATYHGAKGEHTSRKDAMTAQNTGISTLYRNSTRNYDESFFEDQVHHRPPASEYTMHLGLKSTGNYVDFYSAARPYSELNYETSHYPASPDSWV
With B1 the binding was “binds”.

Source: patent US6797511
